{"source": "PubChem BioAssay AID1259425, University of Nebraska Medical Center, 2018", "assay": "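Seek colon cancer weak points whose silencing resembles KSR1 loss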 (primary screen)", "cells": "HCT116 human colon cancer cells", "reagents": "siRNA pool against human genes, 50 nM siRNA", "measurement": "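After 50 nM siRNA pool, branched-DNA assay measures six marker transcripts per well, minus blank, normalised to the geometric mean of two housekeeping transcripts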", "scale": "BNIP3L mRNA: higher = more BNIP3L transcript after knockdown", "note": "This is one part, drawn at random, of about 14,000 reagents tested. Further read-outs or replicates are left out here. Not stated in the record: the time to read-out."}
{"gene symbol": "CCDC30", "BNIP3L mRNA, set 1": 0.0783}
{"gene symbol": "RIN3", "BNIP3L mRNA, set 1": 0.128}
{"gene symbol": "PIH1D1", "BNIP3L mRNA, set 1": 0.143}
{"gene symbol": "ATP10B", "BNIP3L mRNA, set 1": 0.156}
{"gene symbol": "RAC2", "BNIP3L mRNA, set 1": 0.0846}
{"gene symbol": "HCN1", "BNIP3L mRNA, set 1": 0.119}
{"gene symbol": "CX3CR1", "BNIP3L mRNA, set 1": 0.23}
{"gene symbol": "ATP6V1F", "BNIP3L mRNA, set 1": 0.183}
{"gene symbol": "SV2A", "BNIP3L mRNA, set 1": 0.0514}
{"gene symbol": "EEF1B2", "BNIP3L mRNA, set 1": 0.0847}
{"gene symbol": "COX7B", "BNIP3L mRNA, set 1": 0.0971}
{"gene symbol": "FGF23", "BNIP3L mRNA, set 1": 0.11}
{"gene symbol": "F2", "BNIP3L mRNA, set 1": 0.075}
{"gene symbol": "VASH2", "BNIP3L mRNA, set 1": 0.168}
{"gene symbol": "CYP26A1", "BNIP3L mRNA, set 1": 0.104}
{"gene symbol": "H2AP", "BNIP3L mRNA, set 1": 0.123}
{"gene symbol": "DEFB1", "BNIP3L mRNA, set 1": 0.132}
{"gene symbol": "DMRTA1", "BNIP3L mRNA, set 1": 0.168}
{"gene symbol": "CCDC62", "BNIP3L mRNA, set 1": 0.0917}
{"gene symbol": "TMPRSS5", "BNIP3L mRNA, set 1": 0.077}
{"gene symbol": "YWHAZ", "BNIP3L mRNA, set 1": 0.0892}
{"gene symbol": "RUNX1-IT1", "BNIP3L mRNA, set 1": 0.193}
{"gene symbol": "RPS16", "BNIP3L mRNA, set 1": 0.169}
{"gene symbol": "STAT6", "BNIP3L mRNA, set 1": 0.099}
{"gene symbol": "CD46", "BNIP3L mRNA, set 1": 0.087}
{"gene symbol": "MFAP3", "BNIP3L mRNA, set 1": 0.0673}
{"gene symbol": "DYRK2", "BNIP3L mRNA, set 1": 0.22}
{"gene symbol": "OR2B2", "BNIP3L mRNA, set 1": 0.123}
{"gene symbol": "OR7A5", "BNIP3L mRNA, set 1": 0.0263}
{"gene symbol": "ZNF91", "BNIP3L mRNA, set 1": 0.125}
{"gene symbol": "ADGRE5", "BNIP3L mRNA, set 1": 0.154}
{"gene symbol": "HSAJ2425 (retired record)", "BNIP3L mRNA, set 1": 0.0808}
{"gene symbol": "DMRT2", "BNIP3L mRNA, set 1": 0.239}
{"gene symbol": "FAM124B", "BNIP3L mRNA, set 1": 0.104}
{"gene symbol": "SPR", "BNIP3L mRNA, set 1": 0.11}
{"gene symbol": "PRRT1", "BNIP3L mRNA, set 1": 0.114}

Targets above whose target name begins with C or c (6):
{"gene symbol": "CCDC30", "BNIP3L mRNA, set 1": 0.0783}
{"gene symbol": "CX3CR1", "BNIP3L mRNA, set 1": 0.23}
{"gene symbol": "COX7B", "BNIP3L mRNA, set 1": 0.0971}
{"gene symbol": "CYP26A1", "BNIP3L mRNA, set 1": 0.104}
{"gene symbol": "CCDC62", "BNIP3L mRNA, set 1": 0.0917}
{"gene symbol": "CD46", "BNIP3L mRNA, set 1": 0.087}
